# Screening data, single-dose tests

Protein sequences, listed by entry. Tags and fused reporters are not part of them.
UniProt P9WPC5, whole entry: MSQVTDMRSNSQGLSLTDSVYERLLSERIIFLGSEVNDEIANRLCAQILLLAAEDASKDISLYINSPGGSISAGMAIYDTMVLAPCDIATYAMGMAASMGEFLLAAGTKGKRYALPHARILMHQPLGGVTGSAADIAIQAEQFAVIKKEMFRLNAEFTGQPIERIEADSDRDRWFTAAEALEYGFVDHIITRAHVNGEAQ
UniProt P9WPC3, whole entry partner: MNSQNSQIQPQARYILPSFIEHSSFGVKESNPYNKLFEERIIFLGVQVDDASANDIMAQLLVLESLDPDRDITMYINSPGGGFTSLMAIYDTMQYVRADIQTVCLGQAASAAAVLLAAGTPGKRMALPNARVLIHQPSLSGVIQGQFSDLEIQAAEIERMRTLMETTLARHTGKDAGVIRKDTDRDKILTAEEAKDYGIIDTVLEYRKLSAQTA

From ChEMBL document CHEMBL3988442, “University of Dundee, Small-Polar-MMV Screening Library” (2021).

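ClpP1P2, Mycobacterium tuberculosis (UniProt P9WPC5 and UniProt P9WPC3). Protease assay of ClpP1P2, read by the AMC dye that it sets free. Compounds at 50 µM. Direction is inferred from only a few compounds that gave an IC50; most scored high, so higher reads as stronger inhibition. Most other retested compounds had strongly negative values. Size under these conditions: about 69,000 compounds, about 10 of them at 50% or above in at least one test.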

The filed quantity is “Percent Effect” (%).
The record does not define 0% and 100%; most values in the screen are far below 50% and negative numbers occur (in some assays of this library far below -100).
This is an unselected part of the compounds tested.

| Compound | percent effect |
|---|---|
| `Cc1ccc(-c2nc(CC(=O)NCC3CCOC3)cs2)o1` (stereo not drawn) | 6.795% |
| `CN(C)C(=O)N1CCN(C(=O)Nc2nc(-c3ccccc3)ns2)CC1` | -12.18% |
| `Cn1cc(CN2CCc3onc(C(=O)Nc4cccnc4)c3C2)cn1` | 4.676% |
| `Cc1ncsc1CNC(=O)N1CCN(Cc2ccccc2)C[C@H]1C` | 2.516% |
| `CCN(CC)c1nc(C)cc(C(=O)Nc2cccc(C(N)=O)c2)n1` | -56.76% |
| `COCCOCCNC(=O)N1CCN(c2ccccc2C#N)CC1` | 9.288% |
| `O=C(CCCc1nc2ccccc2[nH]1)N1CCCC1c1ccncc1` (stereo not drawn) | 10.42% |
| `CC(C(=O)Nc1ccc2ccccc2c1)N1CCC(n2ccnc2)CC1` (stereo not drawn) | -10.36% |
| `Fc1ccc(CN2CCO[C@H]3[C@H](OCC4CCCC4)CC[C@@H]32)cc1` | -42.39% |
| `Cc1oncc1C(=O)NCc1cc(=O)n2c(n1)CN(C(C)C)CCC2` | 4.854% |
| `CCN1C(=O)C2(CCN(CCN(C)C)CC2)c2ccccc21` | 2.543% |
| `CCC(O)CN1CCN(C(=O)c2sccc2OC)CC1` (stereo not drawn) | -5.38% |
| `NC(=O)CNC(=O)c1ccc(CNCc2ccc(F)cc2F)cc1` | -6.1% |
| `N#CCCn1cnc2c(Br)cccc2c1=O` | 9.223% |
| `CNC(=O)C(C)(C)CNC(=O)Nc1ccncc1C` | -10.06% |
| `CCOCC(O)CN1CCN(C(=O)c2ccc(OC)cc2F)CC1` (stereo not drawn) | 8.782% |
| `CN(Cc1ccc(O)cc1)C(=O)NC1CCCN(c2ncccn2)C1` (stereo not drawn) | -28.55% |
| `c1coc(-c2noc(CN3CCC(c4ccn[nH]4)CC3)n2)c1` | -11.58% |
| `CCC(C)NC(=O)c1cc(S(N)(=O)=O)c(Br)s1` (stereo not drawn) | 6.208% |
| `Cc1c(CN2CCCC2(C)C(=O)NC2CCCC2)cnn1C` (stereo not drawn) | -12.09% |
| `Cc1ccccc1-c1noc(CNc2ccc(F)cc2OCCO)n1` | 0.8833% |
| `Cn1cc(CCNC(=O)N2CCCC(Cc3nccn3C)C2)cn1` (stereo not drawn) | -10.32% |
| `CCCc1nc(N2CCSCC2)c2c(n1)c(C)nn2CC` | -5.921% |
| `CCN(C)c1ncc2c(c1C(=O)O)CCN(C1CCOC1)C2` (stereo not drawn) | 4.333% |
| `CN(CC(=O)NC(Cc1ccccc1)C1CCCC1)S(C)(=O)=O` (stereo not drawn) | 4.593% |
| `Cc1c(C(=O)O)oc2ccc(I)cc12` | 5.272% |
| `NC(=O)NCC(=O)N1CCCC(OCc2cccnc2)C1` (stereo not drawn) | 8.604% |
| `O=C(CCc1cccnc1)N1CCCCC1c1ccn2ccnc2n1` (stereo not drawn) | 1.073% |
| `Cc1nccn1CCC1CCCCN1Cc1ccncc1` (stereo not drawn) | 9.375% |
| `CN(C)C(CNC(=O)NCc1cc[nH]n1)c1ccco1` (stereo not drawn) | -6.761% |
| `O=C(C1CCCC1)N1C[C@@H]2CCN(c3cccnc3)C[C@@H]2C1` | -3.007% |
| `COc1ccc(OC)c(Sc2ncccc2C(=O)NCCSC)c1` | -4.981% |
| `CC(=O)N1CCC2(C1)CN(S(=O)(=O)c1ccccc1)C2` | 0.7985% |
| `N#CCCn1cnc2c(F)cc(Br)cc2c1=O` | 0.2304% |
| `Cc1nc2c(cc1C(=O)O)CCN(CC1CC1)CC2` | -5.221% |
| `Cc1cc(N2CCCC(O)(CN(C)C(=O)CCN)C2)c2cnccc2n1` (stereo not drawn) | 1.923% |
| `O=C(CC1CC1)N1C[C@@H]2CCN(c3cnccn3)C[C@@H]2C1` | 2.246% |
| `O=C1CC(NCc2cnc(C3CCCCC3)nc2)CN1c1ccccc1` (stereo not drawn) | -4.244% |
| `Cn1c(CN2CCOCC2)cc(=O)c(O)c1CN1CCOCC1` | -25.86% |
| `O=C1CCCN1Cc1ncn2c1CN(C(=O)NC1CCCC1)CCC2` | 6.719% |
| `CCN(Cc1ccncc1)S(C)(=O)=O` | -17.04% |
| `CCc1noc(CN(CC)C(=O)CC2C(=O)NCCN2CC=C(C)C)n1` (stereo not drawn) | 4.66% |
| `COc1ccc(C2=CCN(C(=O)C3CCN(C)C(=O)C3)CC2)cc1` (stereo not drawn) | 2.604% |
| `Cc1c(NCC(C)(C)C)cccc1C(=O)N(C)Cc1ncnn1C` | 11.05% |
| `Cc1csc(CN(C)CCCOc2cccc(C#N)c2)n1` | -11.28% |
| `CC(=O)NCC1CCN(C(=O)c2c[nH]c3cc(Cl)ccc23)CC1` | -1.73% |
| `COCC(=O)NCCC(=O)N1CCN(S(=O)(=O)c2ccc(Br)cc2)CC1` | 7.552% |